Test results published in publication PMC8514450.
Results are given in words; binding and its absence hold for the method and conditions named. In cells and extracts the contact can be indirect. Some binding calls cover weakened binding; strength is not graded here.

Target: Flag-p62 (UniProt Q13501)
Assay: co-IP; HeLa cells transfected with the indicated expression vectors, treated with or without celastrol (2 uM, 1 h); lysis in 25 mM Tris-HCl pH 7.4, 150 mM NaCl, 1% Triton X-100, 5 mM EDTA; anti-Flag antibody, protein A/G-Sepharose; Western blot

binding: binds
Substance: Nur77 (from UniProt P22736-1 1-598)
